Experimental findings from article PMC8441146 are described below.

Amino acid sequences for entries named in this document (tags omitted). A change or cut given only in a name is not applied to a line headed by its entry.
UniProt Q6NZY4: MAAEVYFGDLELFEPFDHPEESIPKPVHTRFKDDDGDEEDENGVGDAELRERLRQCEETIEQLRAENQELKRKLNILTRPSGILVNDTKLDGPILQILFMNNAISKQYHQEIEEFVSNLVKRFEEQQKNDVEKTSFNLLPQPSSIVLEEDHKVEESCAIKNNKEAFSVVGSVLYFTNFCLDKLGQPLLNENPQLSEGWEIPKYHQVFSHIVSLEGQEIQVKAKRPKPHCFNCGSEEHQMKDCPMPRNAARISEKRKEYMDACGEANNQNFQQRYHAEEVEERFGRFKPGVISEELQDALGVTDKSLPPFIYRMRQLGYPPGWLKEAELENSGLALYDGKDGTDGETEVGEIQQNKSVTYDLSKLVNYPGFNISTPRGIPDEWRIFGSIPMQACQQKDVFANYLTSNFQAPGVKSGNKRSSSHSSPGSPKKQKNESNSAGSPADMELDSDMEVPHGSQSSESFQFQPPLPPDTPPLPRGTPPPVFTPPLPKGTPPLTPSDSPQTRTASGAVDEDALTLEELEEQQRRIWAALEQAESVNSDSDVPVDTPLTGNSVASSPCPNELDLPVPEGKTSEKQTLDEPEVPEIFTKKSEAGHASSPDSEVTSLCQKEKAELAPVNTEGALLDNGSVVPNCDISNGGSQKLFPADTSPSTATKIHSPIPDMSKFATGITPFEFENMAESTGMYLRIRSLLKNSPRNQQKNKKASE
UniProt P29558: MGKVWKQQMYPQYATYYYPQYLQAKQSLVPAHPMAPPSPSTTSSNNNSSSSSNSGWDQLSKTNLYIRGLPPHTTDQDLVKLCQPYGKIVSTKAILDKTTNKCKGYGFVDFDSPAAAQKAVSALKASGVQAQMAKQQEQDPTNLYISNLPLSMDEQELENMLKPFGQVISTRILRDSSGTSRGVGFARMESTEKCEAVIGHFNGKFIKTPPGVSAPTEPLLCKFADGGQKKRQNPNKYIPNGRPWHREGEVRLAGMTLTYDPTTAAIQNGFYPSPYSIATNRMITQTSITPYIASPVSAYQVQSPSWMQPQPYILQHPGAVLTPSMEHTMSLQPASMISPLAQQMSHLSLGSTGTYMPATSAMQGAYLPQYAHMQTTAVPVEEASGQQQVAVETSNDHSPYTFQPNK
UniProt P38159: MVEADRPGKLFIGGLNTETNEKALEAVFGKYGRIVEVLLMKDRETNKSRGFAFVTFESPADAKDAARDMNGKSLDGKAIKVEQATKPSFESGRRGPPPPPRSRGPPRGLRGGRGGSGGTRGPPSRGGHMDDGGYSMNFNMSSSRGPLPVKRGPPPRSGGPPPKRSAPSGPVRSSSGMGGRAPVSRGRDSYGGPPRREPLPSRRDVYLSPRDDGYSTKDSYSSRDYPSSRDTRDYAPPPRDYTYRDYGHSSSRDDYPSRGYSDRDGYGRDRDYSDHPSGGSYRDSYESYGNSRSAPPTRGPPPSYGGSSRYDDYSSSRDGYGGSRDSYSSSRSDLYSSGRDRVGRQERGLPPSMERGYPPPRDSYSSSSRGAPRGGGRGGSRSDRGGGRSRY

The exact form of at least one protein or probe is not confirmed. Where cells or extracts were used, other partners may take part. For some of these results: The comparison behind a weaker result is the experiment's own reference, which may not be listed here. For some of these results: At least one verdict was read from the data and is not stated in words by the source. For some of these results: Protein sequences can lack the tags named with them. For some of these results: Whether high values mean tight binding is not given here for every scale.

In series [1] the target is T1, DDX1 (endogenous) (Homo sapiens (HeLa)) (UniProt Q92499).
T1 sequence (looked up, limits assumed): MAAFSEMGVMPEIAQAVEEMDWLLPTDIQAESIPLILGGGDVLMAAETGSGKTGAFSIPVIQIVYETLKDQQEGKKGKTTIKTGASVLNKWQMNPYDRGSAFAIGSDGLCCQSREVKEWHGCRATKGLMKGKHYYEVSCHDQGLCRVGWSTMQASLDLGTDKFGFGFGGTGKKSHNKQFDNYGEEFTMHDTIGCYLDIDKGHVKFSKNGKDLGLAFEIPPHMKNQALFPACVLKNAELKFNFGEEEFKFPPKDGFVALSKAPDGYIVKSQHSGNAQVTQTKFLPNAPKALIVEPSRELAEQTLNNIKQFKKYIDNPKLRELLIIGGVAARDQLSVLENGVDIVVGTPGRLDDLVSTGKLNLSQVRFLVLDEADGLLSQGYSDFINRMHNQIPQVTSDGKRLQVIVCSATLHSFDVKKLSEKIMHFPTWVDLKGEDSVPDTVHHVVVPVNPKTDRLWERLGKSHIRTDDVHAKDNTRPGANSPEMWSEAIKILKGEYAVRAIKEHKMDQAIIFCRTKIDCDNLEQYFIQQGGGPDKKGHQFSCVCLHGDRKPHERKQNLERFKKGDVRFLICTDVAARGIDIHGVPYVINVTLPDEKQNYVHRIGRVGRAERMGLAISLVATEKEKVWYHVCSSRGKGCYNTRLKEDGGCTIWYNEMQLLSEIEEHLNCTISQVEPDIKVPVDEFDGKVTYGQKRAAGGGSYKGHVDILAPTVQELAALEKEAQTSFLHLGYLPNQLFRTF
Nature of the series: photo-crosslinking pull-down. Conditions: HeLa lysate, UV, biotin CP, RNA 1-12, DNA 13-25, pull-down: HeLa RIPA lysate, 4 C, UV 6 min on ice, 2 M NaCl washes, protein in an extract, label: none on BP, CP carries biotin and diazirine.

The target in series [2] is T2, YTHDC2 (endogenous) (Homo sapiens (HeLa)) (UniProt Q9H6S0).
T2 sequence (looked up, limits assumed): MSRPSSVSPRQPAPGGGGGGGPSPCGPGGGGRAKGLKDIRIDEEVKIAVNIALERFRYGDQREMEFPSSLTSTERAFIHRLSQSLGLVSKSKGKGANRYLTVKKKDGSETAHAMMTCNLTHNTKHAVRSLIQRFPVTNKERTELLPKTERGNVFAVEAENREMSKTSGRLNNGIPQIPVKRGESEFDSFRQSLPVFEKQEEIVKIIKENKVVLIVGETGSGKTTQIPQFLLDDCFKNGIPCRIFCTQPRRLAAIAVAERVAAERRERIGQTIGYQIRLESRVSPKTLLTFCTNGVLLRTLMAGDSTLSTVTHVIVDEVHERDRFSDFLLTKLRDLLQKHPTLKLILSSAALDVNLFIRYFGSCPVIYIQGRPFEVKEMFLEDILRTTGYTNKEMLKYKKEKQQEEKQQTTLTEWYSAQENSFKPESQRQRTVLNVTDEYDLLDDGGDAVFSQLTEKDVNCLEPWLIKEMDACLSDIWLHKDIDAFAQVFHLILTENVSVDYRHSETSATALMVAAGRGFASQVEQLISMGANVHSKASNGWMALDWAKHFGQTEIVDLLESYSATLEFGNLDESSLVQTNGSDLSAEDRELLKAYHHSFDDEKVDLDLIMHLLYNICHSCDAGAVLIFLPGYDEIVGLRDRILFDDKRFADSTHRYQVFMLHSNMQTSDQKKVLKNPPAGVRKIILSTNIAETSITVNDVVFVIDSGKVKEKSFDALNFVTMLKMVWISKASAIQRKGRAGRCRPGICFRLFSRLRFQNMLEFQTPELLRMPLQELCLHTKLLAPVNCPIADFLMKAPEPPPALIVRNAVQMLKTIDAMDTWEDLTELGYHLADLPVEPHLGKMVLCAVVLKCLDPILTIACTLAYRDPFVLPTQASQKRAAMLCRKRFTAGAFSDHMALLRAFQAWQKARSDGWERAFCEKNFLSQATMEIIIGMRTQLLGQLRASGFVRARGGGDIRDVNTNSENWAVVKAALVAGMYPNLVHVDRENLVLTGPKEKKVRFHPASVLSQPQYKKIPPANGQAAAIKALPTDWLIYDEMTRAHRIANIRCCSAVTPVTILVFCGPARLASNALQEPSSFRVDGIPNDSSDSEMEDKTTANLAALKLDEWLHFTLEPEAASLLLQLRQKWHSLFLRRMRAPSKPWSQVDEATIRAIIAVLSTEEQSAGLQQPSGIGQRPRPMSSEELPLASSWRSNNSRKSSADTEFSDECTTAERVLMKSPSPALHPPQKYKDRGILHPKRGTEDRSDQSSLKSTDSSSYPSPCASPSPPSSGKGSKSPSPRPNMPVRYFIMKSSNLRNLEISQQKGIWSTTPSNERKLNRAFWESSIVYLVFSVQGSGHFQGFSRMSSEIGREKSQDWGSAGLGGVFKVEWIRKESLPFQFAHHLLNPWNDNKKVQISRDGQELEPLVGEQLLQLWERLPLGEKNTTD
Put plainly: photo-crosslinking pull-down, PRM MS. As to conditions: RNA 1-9, DNA 10-22, pull-down: HeLa RIPA lysate, 4 C, UV 6 min on ice, 2 M NaCl washes, protein in an extract, label: none on BP, CP carries FAM or biotin and diazirine.

The target in series [3] is ZCCHC8 (endogenous) (Homo sapiens (HeLa)) (UniProt Q6NZY4). Nature of the series: photo-crosslinking pull-down, DIA MS, immunoblot. Conditions: UV, biotin CP, RNA 1-9, DNA 10-22, pull-down: HeLa RIPA lysate, 4 C, UV 6 min on ice, 2 M NaCl washes, protein in an extract, label: none on BP, CP carries FAM or biotin and diazirine. (A western blot detects proteins with antibodies after separation by electrophoresis.)

Series [4] has as its target RBMS1 (endogenous) (Homo sapiens (HeLa)) (UniProt P29558). Put plainly: photo-crosslinking pull-down, PRM MS, immunoblot. Conditions: UV, biotin CP, RNA 1-9, DNA 10-22, pull-down: HeLa RIPA lysate, 4 C, UV 6 min on ice, 2 M NaCl washes, protein in an extract, label: none on BP, CP carries FAM or biotin and diazirine.
The target of series [5] is T3, SSBP1 (endogenous) (Homo sapiens (HeLa)) (UniProt Q04837).
T3 sequence (looked up, limits assumed): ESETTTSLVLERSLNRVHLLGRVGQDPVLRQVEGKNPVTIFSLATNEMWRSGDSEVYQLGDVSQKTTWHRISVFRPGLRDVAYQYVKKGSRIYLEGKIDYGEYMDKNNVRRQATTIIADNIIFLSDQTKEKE
Nature of the series: photo-crosslinking pull-down, PRM MS, immunoblot. Conditions: HeLa lysate, UV, biotin CP; RNA 1-9, DNA 10-22; unmodified A; pull-down: HeLa RIPA lysate, 4 C, UV 6 min on ice, 2 M NaCl washes; protein in an extract; label: none on BP, CP carries FAM or biotin and diazirine.

The target in series [6] is T4, DUS3L (endogenous) (Homo sapiens (HeLa)) (UniProt Q96G46).
T4 sequence (looked up, limits assumed): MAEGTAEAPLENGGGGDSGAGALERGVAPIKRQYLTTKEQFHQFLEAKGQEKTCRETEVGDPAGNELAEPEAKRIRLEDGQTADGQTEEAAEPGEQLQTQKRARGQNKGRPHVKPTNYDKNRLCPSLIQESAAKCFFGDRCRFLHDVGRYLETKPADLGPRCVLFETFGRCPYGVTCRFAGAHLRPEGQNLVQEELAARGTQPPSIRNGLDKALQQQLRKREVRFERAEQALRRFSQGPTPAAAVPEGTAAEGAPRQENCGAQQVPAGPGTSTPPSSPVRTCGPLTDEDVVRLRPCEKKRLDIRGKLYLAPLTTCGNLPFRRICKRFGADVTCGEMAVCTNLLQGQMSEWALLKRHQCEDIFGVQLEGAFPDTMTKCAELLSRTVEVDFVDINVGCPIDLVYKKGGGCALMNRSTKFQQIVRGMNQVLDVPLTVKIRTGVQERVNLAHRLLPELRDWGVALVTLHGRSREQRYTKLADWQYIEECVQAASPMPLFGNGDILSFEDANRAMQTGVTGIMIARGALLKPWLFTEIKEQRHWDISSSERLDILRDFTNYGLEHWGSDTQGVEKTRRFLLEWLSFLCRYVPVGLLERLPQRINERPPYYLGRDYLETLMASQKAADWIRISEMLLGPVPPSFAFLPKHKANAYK
Put plainly: photo-crosslinking pull-down, PRM MS. Conditions: UV, biotin CP, RNA 1-7, DNA 8-20, pull-down: HeLa RIPA lysate, 4 C, UV 6 min on ice, 2 M NaCl washes, protein in an extract, label: none on BP.

In series [7] the target is RBMX (endogenous) (Homo sapiens (HeLa)) (UniProt P38159). Put plainly: photo-crosslinking pull-down, PRM MS. Conditions: UV, biotin CP, RNA 1-7, DNA 8-20, pull-down: HeLa RIPA lysate, 4 C, UV 6 min on ice, 2 M NaCl washes, protein in an extract, label: none on BP.
Series [8] addresses T1, DDX1 (endogenous) (Homo sapiens (HeLa)). Put plainly: photo-crosslinking pull-down, PRM MS, immunoblot. As to conditions: UV, biotin CP, RNA 1-7, DNA 8-20, pull-down: HeLa RIPA lysate, 4 C, UV 6 min on ice, 2 M NaCl washes, protein in an extract, label: none on BP.
Series [9] deals with T3, SSBP1 (endogenous) (Homo sapiens (HeLa)). Nature of the series: photo-crosslinking pull-down, DIA MS, immunoblot. Conditions: vs N2, HeLa lysate, UV, biotin CP; m6A at position 3; RNA 1-9, DNA 10-22; pull-down: HeLa RIPA lysate, 4 C, UV 6 min on ice, 2 M NaCl washes; protein in an extract; label: none on BP, CP carries FAM or biotin and diazirine.
Setting [10] is: vs N4, HeLa lysate, 2'-O-methyl A at position 1, CP carries biotin and ….
The mark [11] stands for this setting: HeLa lysate, unmodified, CP carries biotin and diazirine.
[12] abbreviates: vs N2, HeLa lysate, m6A at position 3.

In the case of GAGUCAGUCAAGTGAATGCCAAAGC [BP-Am-6], in series [1] (2'-O-methyl A at position 6), the binding result is on record as “binds”.
In the case of GGACUGUACTGAATGCCAAAGC [BP-A(m6A)], the binding result is “binds more weakly” in series [2] (HeLa lysate, UV, biotin CP, unmodified A); “binds more weakly” in [3] (HeLa lysate, unmodified A); “binds more weakly” in series [4] (HeLa lysate, unmodified A); “binds more weakly” in series [5].
On to GAGUCAGUCAAGTGAATGCCAAAGC [BP-A-6(Am)], for which the binding result in [1] (unmodified) was “binds more weakly”.
AAGAUCGTGAATGCCAAAGC [BP-Am]: the binding signal amounted to 2 fold Am/A in [6] (setting [10]), 2 fold Am/A in series [7] (setting [10]) and 2.18 fold Am/A in series [8] (setting [10]).
With AAGAUCGTGAATGCCAAAGC [BP-A(Am)], the binding result in series [6] (setting [11]), in series [7] (setting [11]) and in series [8] (setting [11]) was “binds more weakly” each time.
GGACUGUACTGAATGCCAAAGC [BP-m6A]: the binding result in series [2] (2.41-14.37 fold over N2 given as range for YTHDC2 and YTHDF1-3 (DIA), m6A at position 3) is “binds”. For the same sequence, the binding signal in series [9] amounted to 12.4 fold m6A/A; in series [3] (setting [12]), 2.24 fold m6A/A; in [4] (setting [12]), 3.21 fold m6A/A.
